The record followed here is PMC8622533.

Results are given in words; binding and its absence hold for the method and conditions named. A result given as binding can be weak or reduced; the word gives no strength. Where a sequence is shown, tags or fusion partners need not be part of it. For part of these data: In cells and extracts the contact can be indirect.

The target in experiment [1] is T1, OsABF1-cYFP (rice (Oryza sativa)) (UniProt Q0JHF1).
T1 sequence: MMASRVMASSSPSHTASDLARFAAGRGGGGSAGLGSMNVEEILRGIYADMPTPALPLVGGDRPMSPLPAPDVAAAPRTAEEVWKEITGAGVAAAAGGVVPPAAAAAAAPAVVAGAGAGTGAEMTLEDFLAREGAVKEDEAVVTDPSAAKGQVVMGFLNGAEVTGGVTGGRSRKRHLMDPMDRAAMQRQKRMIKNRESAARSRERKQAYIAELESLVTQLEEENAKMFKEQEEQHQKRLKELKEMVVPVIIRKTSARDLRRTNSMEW
The experiment can be described thus: split reporter; BiFC; nYFP-OsEMF2b and OsABF1-cYFP from vector pDOE-BiFC, transiently expressed in tobacco leaf epidermal cells; YFP fluorescence.

For experiment [2], the target named is T2, OsABF1-BD (rice (Oryza sativa)) (UniProt Q0JHF1).
T2 sequence: T1 sequence
Kind of experiment: two-hybrid; Clontech system, yeast strain Y2H Gold; OsABF1 in bait vector pGBKT7, OsEMF2b in prey vector pGADT7; growth on SD-Trp/-Leu/-Ade/-His with 3 mM 3-AT.

Experiment [3] addresses T3, GST-OsABF1 (rice (Oryza sativa)) (UniProt Q0JHF1).
T3 sequence: T1 sequence
Kind of experiment: pull-down; GST pull-down in vitro; GST-OsABF1 or GST as bait, purified His-OsEMF2b as prey; detected with anti-His and anti-GST antibodies; both purified.

As for nYFP-OsEMF2b (rice (Oryza sativa)), in experiment [1], the binding entry is listed as “binds”.

Take OsEMF2b-AD (rice (Oryza sativa)): the binding result in experiment [2] is reported as “binds”.

With His-OsEMF2b (rice (Oryza sativa)), the binding entry in experiment [3] is “binds”.
